Experimental data as given in the supplement of paper PMC7661543.
Differences between knockout arms are mostly noise.

Test system: MDA-MB-231
Assay: relative cell number vs DMSO control (72 h) (% of DMSO); higher = less growth inhibition (more cells)
Protocol: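 QMAP-Seq: a pool of 5 breast cancer cell lines (ZR-75-1, SKBR3, HCC-38, MDA-MB-231, BT-20), each carrying 12 doxycycline-inducible Cas9 sgRNA perturbations (11 knockouts plus non-targeting sgNT), was treated with compounds for 72 h at four 10-fold doses (10 nM-10 uM or 1 nM-1 uM range). Barcodes were amplified and sequenced, and cell number was interpolated from 293T spike-in standard curves. The result is expressed as % of the median of DMSO wells. Two biological replicates.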

COc1cc2nccc(Oc3ccc(NC(=O)Nc4cc(C)on4)c(Cl)c3)c2cc1OC [Tivozanib]
Conditions	relative cell number
sgRNA knockout: sgATF3, 10 nM	96.5
sgRNA knockout: sgATF3, 100 nM	105
sgRNA knockout: sgATF3, 1000 nM	114
sgRNA knockout: sgATF3, 10000 nM	49.9
sgRNA knockout: sgATF4, 10 nM	68.6
sgRNA knockout: sgATF4, 100 nM	107
sgRNA knockout: sgATF4, 1000 nM	108
sgRNA knockout: sgATF4, 10000 nM	42.8
sgRNA knockout: sgATF6, 10 nM	81.9
sgRNA knockout: sgATF6, 100 nM	95.7
sgRNA knockout: sgATF6, 1000 nM	104
sgRNA knockout: sgATF6, 10000 nM	50.7
sgRNA knockout: sgATG7, 10 nM	100
sgRNA knockout: sgATG7, 100 nM	104
sgRNA knockout: sgATG7, 1000 nM	97.3
sgRNA knockout: sgATG7, 10000 nM	47.16
sgRNA knockout: sgERN1, 10 nM	83.6
sgRNA knockout: sgERN1, 100 nM	124
sgRNA knockout: sgERN1, 1000 nM	83
sgRNA knockout: sgERN1, 10000 nM	52.8
sgRNA knockout: sgHSF1, 10 nM	99.5
sgRNA knockout: sgHSF1, 100 nM	106
sgRNA knockout: sgHSF1, 1000 nM	120
sgRNA knockout: sgHSF1, 10000 nM	55.6
sgRNA knockout: sgHSF2, 10 nM	86.3
sgRNA knockout: sgHSF2, 100 nM	92.2
sgRNA knockout: sgHSF2, 1000 nM	102
sgRNA knockout: sgHSF2, 10000 nM	50.4
sgRNA knockout: sgKEAP1, 10 nM	105
sgRNA knockout: sgKEAP1, 100 nM	109
sgRNA knockout: sgKEAP1, 1000 nM	127
sgRNA knockout: sgKEAP1, 10000 nM	59.1
sgRNA knockout: sgNFE2L2, 10 nM	90.9
sgRNA knockout: sgNFE2L2, 100 nM	102
sgRNA knockout: sgNFE2L2, 1000 nM	104
sgRNA knockout: sgNFE2L2, 10000 nM	53.6
sgRNA knockout: sgSLC35F2, 10 nM	72.7
sgRNA knockout: sgSLC35F2, 100 nM	73.32
sgRNA knockout: sgSLC35F2, 1000 nM	122
sgRNA knockout: sgSLC35F2, 10000 nM	43.8
sgRNA knockout: sgXBP1, 10 nM	82.1
sgRNA knockout: sgXBP1, 100 nM	82.6
sgRNA knockout: sgXBP1, 1000 nM	92.3
sgRNA knockout: sgXBP1, 10000 nM	56.52

O=P1(N(CCCl)CCCl)NCCCO1 (stereo not drawn) [Cyclophosphamide]
Conditions	relative cell number
sgRNA knockout: sgATF3, 10 nM	94.9
sgRNA knockout: sgATF3, 100 nM	113
sgRNA knockout: sgATF3, 1000 nM	109
sgRNA knockout: sgATF3, 10000 nM	106
sgRNA knockout: sgATF4, 10 nM	121
sgRNA knockout: sgATF4, 100 nM	78.5
sgRNA knockout: sgATF4, 1000 nM	116
sgRNA knockout: sgATF4, 10000 nM	105
sgRNA knockout: sgATF6, 10 nM	100.9
sgRNA knockout: sgATF6, 100 nM	104
sgRNA knockout: sgATF6, 1000 nM	92.8
sgRNA knockout: sgATF6, 10000 nM	92.5
sgRNA knockout: sgATG7, 10 nM	91.3
sgRNA knockout: sgATG7, 100 nM	90.7
sgRNA knockout: sgATG7, 1000 nM	128
sgRNA knockout: sgATG7, 10000 nM	79
sgRNA knockout: sgERN1, 10 nM	110
sgRNA knockout: sgERN1, 100 nM	95.6
sgRNA knockout: sgERN1, 1000 nM	131
sgRNA knockout: sgERN1, 10000 nM	106
sgRNA knockout: sgHSF1, 10 nM	118
sgRNA knockout: sgHSF1, 100 nM	94.5
sgRNA knockout: sgHSF1, 1000 nM	92.5
sgRNA knockout: sgHSF1, 10000 nM	93.9
sgRNA knockout: sgHSF2, 10 nM	102.58
sgRNA knockout: sgHSF2, 100 nM	94
sgRNA knockout: sgHSF2, 1000 nM	111
sgRNA knockout: sgHSF2, 10000 nM	86
sgRNA knockout: sgKEAP1, 10 nM	101
sgRNA knockout: sgKEAP1, 100 nM	95.9
sgRNA knockout: sgKEAP1, 1000 nM	108
sgRNA knockout: sgKEAP1, 10000 nM	99.5
sgRNA knockout: sgNFE2L2, 10 nM	116
sgRNA knockout: sgNFE2L2, 100 nM	98.11
sgRNA knockout: sgNFE2L2, 1000 nM	94.2
sgRNA knockout: sgNFE2L2, 10000 nM	103
sgRNA knockout: sgSLC35F2, 10 nM	79
sgRNA knockout: sgSLC35F2, 100 nM	113
sgRNA knockout: sgSLC35F2, 1000 nM	81.5
sgRNA knockout: sgSLC35F2, 10000 nM	81.6
sgRNA knockout: sgXBP1, 10 nM	98.7
sgRNA knockout: sgXBP1, 100 nM	103
sgRNA knockout: sgXBP1, 1000 nM	111
sgRNA knockout: sgXBP1, 10000 nM	103
